Results deposited as PubChem BioAssay AID686938 (Drosophila RNAi Screening Center, 2013).

Test: 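Fly genes required for calcium entry once internal stores are emptied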 (primary screen)
Cells: Drosophila S2R+ cells
Reagent: long dsRNA against Drosophila genes, about 0.25 µg dsRNA per well, roughly 10,000 cells
Time to read-out: 5 days of knock-down before the calcium assay
Treatment: thapsigargin (SERCA pump blocker) to empty calcium stores; entry signal taken 4 min after adding it
Detection: 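Per-well fluo-4 fluorescence in two replicates, unnormalised, measured in resting cells and 4 min after store depletion by the SERCA blocker thapsigargin; ratio of the two present in few wells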
Direction: calcium entry signal: higher = stronger calcium signal after store depletion; resting calcium signal: higher = higher resting calcium signal
Units: calcium entry signal in fluorescence units; resting calcium signal in fluorescence units
Call rule: 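Hit if the duplicate-averaged plate z-score for entry over resting signal is under −3; wells with weak total dye signal (Fmax z < −2) or more than 5 off-targets removed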
Calls: active = strongly reduced calcium entry; inactive = no strong reduction
The deposit covers about 23,000 reagents; this is an unselected part of those with a known target gene and a result. Over the whole deposit, 75 (0.33%) were called active. 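Raw plate signals without normalisation; calls rest on plate z-scores that were not deposited; ratio present for only 364 wells.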 Reagents against one gene are numbered here. Names joined by + are all predicted targets of the reagent. Not given: the dose of the treatment.

After knock-down of CG14245, the record shows calcium entry signal, replicate 1 = 2.42e7; calcium entry signal, replicate 2 = 3.62e7; resting calcium signal, replicate 1 = 1.28e7; resting calcium signal, replicate 2 = 1.59e7; inactive.
Uxt (Uxt prefoldin-like subunit) scored calcium entry signal, replicate 1 = 3.90e7; calcium entry signal, replicate 2 = 2.40e7; resting calcium signal, replicate 1 = 1.80e7; resting calcium signal, replicate 2 = 1.16e7; inactive.
With knock-down of mam (mastermind) #1, the screen gave calcium entry signal, replicate 1 = 4.21e7; calcium entry signal, replicate 2 = 5.50e7; resting calcium signal, replicate 1 = 2.15e7; resting calcium signal, replicate 2 = 2.90e7; inactive.
Against mam (mastermind) #2, the entry reads calcium entry signal, replicate 1 = 2.98e7; calcium entry signal, replicate 2 = 2.96e7; resting calcium signal, replicate 1 = 1.95e7; resting calcium signal, replicate 2 = 1.89e7; inactive.
After knock-down of mam (mastermind) #3 the results were calcium entry signal, replicate 1 = 7.36e7; calcium entry signal, replicate 2 = 3.04e7; resting calcium signal, replicate 1 = 3.17e7; resting calcium signal, replicate 2 = 1.22e7; inactive.
CG12084 gave calcium entry signal, replicate 1 = 3.18e7; calcium entry signal, replicate 2 = 2.57e7; resting calcium signal, replicate 1 = 1.43e7; resting calcium signal, replicate 2 = 1.31e7; inactive.
With knock-down of asRNA:CR43468 + Lfg the results were calcium entry signal, replicate 1 = 3.25e7; calcium entry signal, replicate 2 = 3.75e7; resting calcium signal, replicate 1 = 1.76e7; resting calcium signal, replicate 2 = 1.73e7; inactive.

Quoted from above for reference:
CG14245 | calcium entry signal, replicate 1: 2.42e7; calcium entry signal, replicate 2: 3.62e7; resting calcium signal, replicate 1: 1.28e7; resting calcium signal, replicate 2: 1.59e7; outcome: inactive
Uxt (Uxt prefoldin-like subunit) | calcium entry signal, replicate 1: 3.90e7; calcium entry signal, replicate 2: 2.40e7; resting calcium signal, replicate 1: 1.80e7; resting calcium signal, replicate 2: 1.16e7; outcome: inactive

Further reagents follow:
After knock-down of Lkr (Leucokinin receptor), the record shows calcium entry signal, replicate 1 = 3.94e7; calcium entry signal, replicate 2 = 7.17e7; resting calcium signal, replicate 1 = 1.82e7; resting calcium signal, replicate 2 = 2.80e7; inactive.
Silencing of CG14395 resulted in: calcium entry signal, replicate 1 = 4.03e7; calcium entry signal, replicate 2 = 4.03e7; resting calcium signal, replicate 1 = 1.97e7; resting calcium signal, replicate 2 = 2.14e7; inactive.
After knock-down of CG30058 + CG34235 + CG34312, the screen gave calcium entry signal, replicate 1 = 5.49e7; calcium entry signal, replicate 2 = 5.08e7; resting calcium signal, replicate 1 = 3.01e7; resting calcium signal, replicate 2 = 2.13e7; inactive.
ssp (sunspot) gave calcium entry signal, replicate 1 = 4.24e7; calcium entry signal, replicate 2 = 4.16e7; resting calcium signal, replicate 1 = 3.23e7; resting calcium signal, replicate 2 = 1.94e7; inactive.
Against SP1029, the values are calcium entry signal, replicate 1 = 3.28e7; calcium entry signal, replicate 2 = 4.52e7; resting calcium signal, replicate 1 = 1.65e7; resting calcium signal, replicate 2 = 1.91e7; inactive.
For Hmgs (HMG Coenzyme A synthase), the values are calcium entry signal, replicate 1 = 5.35e7; calcium entry signal, replicate 2 = 4.45e7; resting calcium signal, replicate 1 = 2.21e7; resting calcium signal, replicate 2 = 2.12e7; inactive.
Against CG18231, the values are calcium entry signal, replicate 1 = 3.44e7; calcium entry signal, replicate 2 = 5.96e7; resting calcium signal, replicate 1 = 1.82e7; resting calcium signal, replicate 2 = 2.45e7; inactive.
Silencing of UBL3 (Ubiquitin like 3) #1 resulted in: calcium entry signal, replicate 1 = 4.12e7; calcium entry signal, replicate 2 = 3.50e7; resting calcium signal, replicate 1 = 2.28e7; resting calcium signal, replicate 2 = 1.82e7; inactive.
After knock-down of UBL3 (Ubiquitin like 3) #2, the screen gave calcium entry signal, replicate 1 = 4.42e7; calcium entry signal, replicate 2 = 3.23e7; resting calcium signal, replicate 1 = 2.08e7; resting calcium signal, replicate 2 = 1.47e7; inactive.
Against CG30419 #1, the entry reads calcium entry signal, replicate 1 = 3.81e7; calcium entry signal, replicate 2 = 7.37e7; resting calcium signal, replicate 1 = 2.07e7; resting calcium signal, replicate 2 = 3.11e7; inactive.
CG30419 #2 showed calcium entry signal, replicate 1 = 3.97e7; calcium entry signal, replicate 2 = 6.21e7; resting calcium signal, replicate 1 = 2.05e7; resting calcium signal, replicate 2 = 2.85e7; inactive.
Against CG30419 #3 the deposit lists calcium entry signal, replicate 1 = 2.54e7; calcium entry signal, replicate 2 = 2.37e7; resting calcium signal, replicate 1 = 1.25e7; resting calcium signal, replicate 2 = 1.05e7; inactive.
Against Pcif1 (Phosphorylated CTD-interacting factor 1), the values are calcium entry signal, replicate 1 = 3.32e7; calcium entry signal, replicate 2 = 3.86e7; resting calcium signal, replicate 1 = 1.60e7; resting calcium signal, replicate 2 = 2.72e7; inactive.
Depletion of Rpt5 (Regulatory particle triple-A ATPase 5) came out at: calcium entry signal, replicate 1 = 2.19e7; calcium entry signal, replicate 2 = 2.59e7; resting calcium signal, replicate 1 = 1.58e7; resting calcium signal, replicate 2 = 1.43e7; inactive.
